Results are given in words; binding and its absence hold for the method and conditions named. In cells and extracts the contact can be indirect. Some binding calls cover weakened binding; strength is not graded here. Tags and fused reporters may be left off the sequences shown.
Molecular target: T1, GST-p31^comet (expressed in HEK293 cells) (human) (UniProt Q15013)
T1 sequence: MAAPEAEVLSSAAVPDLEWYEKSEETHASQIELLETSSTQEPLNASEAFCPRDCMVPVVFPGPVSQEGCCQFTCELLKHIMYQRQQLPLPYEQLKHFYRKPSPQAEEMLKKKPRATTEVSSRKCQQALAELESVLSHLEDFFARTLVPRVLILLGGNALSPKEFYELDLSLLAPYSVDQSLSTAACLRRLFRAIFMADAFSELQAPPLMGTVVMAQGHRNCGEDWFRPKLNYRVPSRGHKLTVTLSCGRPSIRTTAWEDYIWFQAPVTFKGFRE
Experiment: pull-down; GST-pulldown from lysates of asynchronous HEK293 cells expressing GST-p31^comet alone or together with GFP-TRIP13; blots with anti-GST and anti-GFP antibodies; untransfected lysates as controls

binding: binds
B1: GFP-TRIP13 (protein, UniProt Q15645 1-432)
chain: MDEAVGDLKQALPCVAESPTVHVEVHQRGSSTAKKEDINLSVRKLLNRHNIVFGDYTWTEFDEPFLTRNVQSVSIIDTELKVKDSQPIDLSACTVALHIFQLNEDGPSSENLEEETENIIAANHWVLPAAEFHGLWDSLVYDVEVKSHLLDYVMTTLLFSDKNVNSNLITWNRVVLLHGPPGTGKTSLCKALAQKLTIRLSSRYRYGQLIEINSHSLFSKWFSESGKLVTKMFQKIQDLIDDKDALVFVLIDEVESLTAARNACRAGTEPSDAIRVVNAVLTQIDQIKRHSNVVILTTSNITEKIDVAFVDRADIKQYIGPPSAAAIFKIYLSCLEELMKCQIIYPRQQLLTLRELEMIGFIENNVSKLSLLLNDISRKSEGLSGRVLRKLPFLAHALYVQAPTVTIEGFLQALSLAVDKQFEERKKLAAYI

— PMC3419070, “Identification of novel mitosis regulators through data mining with human centromere/kinetochore proteins as group queries” (BMC Cell Biology, 2012)
